Laboratory results taken from PubChem BioAssay AID2685 (National Center for Advancing Translational Sciences (NCATS), 2010).
Among all 320,000 compounds or so, about 2,100 (0.66%) were called active. The inconclusive results got no clear call from the source; some entries with a clear call stand among them for comparison. The call rests on the fitted dose curve; in most records, active means well fitted inhibition curve with a large enough effect in the signal ratio, with a control signal flat (not every such curve was filed as active); inconclusive means small, poorly fitted or top-dose-only effect, or effect the other way, or a change in a side signal; inactive means flat fitted curve, though single readings scatter; the % refers to the signal ratio. Potencies beside an inconclusive call are fits to weak or partial responses and may not hold up.

Assay: qHTS Assay for Lipid Storage Modulators in Drosophila S3 Cells
Conditions: BODIPY lipid droplet fluorescence, 18-24 h, cells fed with added oleic acid; lipid storage change, negative = inhibition: at 46.1 µM (top of the series) unless noted
Procedure, shortened: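 Drosophila S3 cells loaded with oleic acid (400 uM, as added) and compounds at several concentrations; lipid droplets imaged by 488-nm laser-scanning cytometry, 500–530 nm intensity and object ratio to cell channel. Percent activity normalized to 20 uM Triacsin C.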
On the % scale 0 is the no-effect control and ±100 the full control effect; potency means the concentration at half of the fitted maximal effect.

Potency, inconclusive:
CC1CCCCC1NC(=O)COc1ncnc2sccc12 (configuration not stated) 29100 nM [falling, single point]
CC1Cc2ccccc2N1Cc1ccc([N+](=O)[O-])cc1 (configuration not stated) 1160 nM [falling, single point]
CCc1cccc(NC(=O)C2CCCN2S(=O)(=O)c2ccc3c(c2)CC(C)N3C(C)=O)c1 (configuration not stated) 1640 nM [activator, full curve, poor fit]
O=C(NCCc1ccc(F)cc1)c1ccc2nccnc2c1 731 nM [falling, single point]
C=CCn1c(=O)[nH]c2cc(C(=O)N3CCN(c4ccc(C(C)=O)cc4)CC3)ccc2c1=O 3660 nM [rising, partial curve]
Cc1nc2nc[nH]n2c(=O)c1NS(C)(=O)=O 164 nM [falling, full curve, poor fit]
Cc1ccc2c(c1)N(C(=O)CCC(=O)N1CCN(c3ccccn3)CC1)CC(C)O2 (configuration not stated) 29100 nM [falling, single point]

Lipid storage change, negative = inhibition, inconclusive:
O=C(c1ccccc1)c1cccn1CC(=O)N1CCN(c2ccccc2)CC1 25.4%
CCN(CC(=O)Nc1cc(Cl)ccc1C)C(=O)c1ccc(=O)n(Cc2ccccc2)n1 25.2%
Cc1ccc(C)c(NC(=S)NNC(=O)c2csc(C(C)C)c2)c1 -4.79%
Cc1nnc(NC(=O)C(C)Sc2nnc(CNC(=O)c3ccccc3F)n2C)s1 (configuration not stated)
O=C(CNC(=O)c1nc[nH]c1C(=O)N1CCc2ccccc2C1)OCc1ccccc1 -16.9%
COc1cccc(NC(=O)CSc2nnc(-c3ccoc3C)n2C)c1 72.8%
COc1ccc(Br)cc1S(=O)(=O)NCc1ccccn1 25.1%
O=[N+]([O-])CC(c1ccc(F)cc1)c1c[nH]c2ccccc12 (configuration not stated) -33.9%
Cc1ccc(O)c(-c2cc(-c3ccccc3[N+](=O)[O-])[nH]n2)c1 -9.86%
O=C(Nc1ccc(F)cc1)c1ccccc1NS(=O)(=O)N1CCCC1 -6.82%
C=CCc1cccc(/C=N/c2nc3ccccc3n2CC)c1O 8.74%
CCOc1ncccc1C(=O)Nc1nnc(C)s1 5.71%
CCn1cc(C2=NC(C)(C)CO2)c2ccccc21 -0.0869%
Cn1cccc1C(=O)NCCc1ccc(Cl)cc1 43%

Sorted by number of heavy atoms (smallest number first): some entries from above
Lipid storage change, negative = inhibition, inconclusive:
C=CCc1cccc(/C=N/c2nc3ccccc3n2CC)c1O 8.74%
Cc1nnc(NC(=O)C(C)Sc2nnc(CNC(=O)c3ccccc3F)n2C)s1 (configuration not stated)
CCN(CC(=O)Nc1cc(Cl)ccc1C)C(=O)c1ccc(=O)n(Cc2ccccc2)n1 25.2%

Next part:

Lipid storage change, negative = inhibition, inactive:
Cc1ccc(-c2nnc(N3CCCCC3)c3ccccc23)cc1 -16.3%
